PubChem BioAssay AID504804 – Drosophila RNAi Screening Center, 2011
In all, the deposit lists about 19,000 reagents; this is a random part of those that have a named target and a result. Of all reagents, 47 (0.25%) are marked active. 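Signals are raw, not normalised; exact z-scores behind calls not deposited; actives needed confirmation, so some wells reaching 2 SD are inactive.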 The numbers tell different reagents against one gene apart. Names joined by + are all predicted targets of the reagent.

Screen: 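dsRNAs that improve Kc cell survival under doxorubicin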 (primary screen)
System: Drosophila Kc cells
Reagents: long dsRNA against Drosophila genes, 0.5 µg dsRNA per well
Duration: 96 h (48 h knock-down, then 48 h drug)
Challenge: doxorubicin 5 µg/ml for 48 h, added 48 h after dsRNA
Measurement: 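Viability measured as cellular ATP by luminescence after 48 h knock-down then 48 h doxorubicin at 5 µg/ml; unnormalised plate counts for each replicate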
Reading the numbers: raw ATP luminescence: higher = more viable cells, protection from doxorubicin
Call rule: 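z-score of 2 or more over plate mean in both duplicates, retained only when retests and separate dsRNAs confirm the protection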

| predicted target | dsRNA no. | SD above plate mean | raw ATP luminescence, replicate 1 | raw ATP luminescence, replicate 2 | call |
| --- | --- | --- | --- | --- | --- |
| CG8833 | 1 | – | 28080 | 22973 | inactive |
| CG34326 (retired record) | 1 | – | 2.18e5 | 2.38e5 | inactive |
| put | 1 | – | 86590 | 29203 | inactive |
| vnc + CG42455 | 1 | 2 to 3 SD above plate mean | 61957 | 61040 | active |
| CG34129 | 1 | – | 71520 | 65160 | inactive |
| CG15365 | 1 | – | 9330 | 9860 | inactive |
| CG13995 | 1 | – | 3.35e5 | 3.09e5 | inactive |
| CG13995 | 2 | – | 22027 | 29403 | inactive |
| Ugt36F1 | 1 | – | 63023 | 56830 | inactive |
| fz4 | 1 | – | 41120 | 45370 | inactive |
| CG9757 | 1 | – | 75910 | 97350 | inactive |
| schlank | 1 | – | 45410 | 44740 | inactive |
| schlank | 2 | – | 39860 | 45500 | inactive |
| pinta | 1 | – | 43403 | 39700 | inactive |
| MED7 | 1 | – | 55773 | 43877 | inactive |
| Mvl | 1 | – | 38303 | 38387 | inactive |
| GILT2 | 1 | – | 34117 | 29893 | inactive |
| Ge-1 | 1 | – | 65767 | 76403 | inactive |
| lama | 1 | – | 29740 | 33567 | inactive |
| TfIIS | 1 | – | 68650 | 63530 | inactive |
| Dnai2 | 1 | – | 80010 | 50990 | inactive |
| CG32187 | 1 | – | 66117 | 51713 | inactive |
| gudu | 1 | – | 26823 | 30430 | inactive |
| Syx4 | 1 | – | 48460 | 40310 | inactive |
| CG6678 | 1 | – | 65047 | 44520 | inactive |
| Adgf-D | 1 | – | 74680 | 96090 | inactive |

Already shown: entries from further up.
| predicted target | dsRNA no. | SD above plate mean | raw ATP luminescence, replicate 1 | raw ATP luminescence, replicate 2 | call |
| --- | --- | --- | --- | --- | --- |
| fz4 | 1 | – | 41120 | 45370 | inactive |
| CG9757 | 1 | – | 75910 | 97350 | inactive |
| schlank | 1 | – | 45410 | 44740 | inactive |
| schlank | 2 | – | 39860 | 45500 | inactive |
| pinta | 1 | – | 43403 | 39700 | inactive |
| MED7 | 1 | – | 55773 | 43877 | inactive |
| Mvl | 1 | – | 38303 | 38387 | inactive |
| GILT2 | 1 | – | 34117 | 29893 | inactive |
| Ge-1 | 1 | – | 65767 | 76403 | inactive |
| lama | 1 | – | 29740 | 33567 | inactive |

The listing continues:
| predicted target | dsRNA no. | SD above plate mean | raw ATP luminescence, replicate 1 | raw ATP luminescence, replicate 2 | call |
| --- | --- | --- | --- | --- | --- |
| E(spl)m4-BFM | 1 | – | 68760 | 57740 | inactive |
| scaf6 | 1 | – | 25727 | 24663 | inactive |
| scaf6 | 2 | – | 37450 | 32440 | inactive |
| scaf6 | 3 | – | 55390 | 32220 | inactive |
| CG6424 | 1 | – | 57637 | 59930 | inactive |
| Ser | 1 | – | 58540 | 32850 | inactive |
| CG31279 | 1 | – | 1.54e5 | 1.77e5 | inactive |
| CG8773 | 1 | – | 64487 | 37087 | inactive |
| CG13488 | 1 | – | 81167 | 79383 | inactive |
| Josd | 1 | – | 40310 | 47540 | inactive |
| Fntb | 1 | – | 46337 | 35027 | inactive |
| CG5968 | 1 | – | 32863 | 42380 | inactive |
| PTPMT1 | 1 | – | 57020 | 78750 | inactive |
| AcCoAS | 1 | – | 65287 | 71353 | inactive |
| AcCoAS | 2 | – | 20603 | 26550 | inactive |
| rdgB | 1 | – | 1.51e5 | 1.79e5 | inactive |
| CG6961 + CG18259 | 1 | – | 3.19e5 | 3.00e5 | inactive |
| CG7878 | 1 | – | 68757 | 60287 | inactive |
| IP3K1 | 1 | – | 70617 | 60050 | inactive |
| scra | 1 | – | 83433 | 69603 | inactive |
| RpL10 | 1 | – | 44563 | 38397 | inactive |
| CG10565 | 1 | – | 23730 | 21140 | inactive |
| COX1 (retired record) | 1 | – | 3.39e5 | 3.25e5 | inactive |
| CG32163 | 1 | – | 71787 | 93860 | inactive |
| CG8405 | 1 | – | 58833 | 41190 | inactive |
| CG13031 | 1 | – | 75403 | 1.02e5 | inactive |
| CG15198 | 1 | – | 3.54e5 | 3.45e5 | inactive |
| CG9286 | 1 | – | 57523 | 36497 | inactive |
| CG8837 | 1 | – | 29160 | 27657 | inactive |
| CG31288 | 1 | – | 63520 | 60110 | inactive |
| CG7079 | 1 | – | 87310 | 62770 | inactive |
